Results are given in words; binding and its absence hold for the method and conditions named. Binding seen in cells or lysates may run through a third protein. Here binding means that the protein was enriched with, or labelled near, the bait; the list need not be complete. Tags and fused reporters may be left off the sequences shown.
Target: T1, N-His-aIF5A produced in Sso PH1-16 (pMJ05-N-His-aIF5A) (Sulfolobus solfataricus) (UniProt Q97ZE8)
T1 sequence (chain, modified, recognised by anti-hypusine antibodies (hypusine or deoxyhypusine)): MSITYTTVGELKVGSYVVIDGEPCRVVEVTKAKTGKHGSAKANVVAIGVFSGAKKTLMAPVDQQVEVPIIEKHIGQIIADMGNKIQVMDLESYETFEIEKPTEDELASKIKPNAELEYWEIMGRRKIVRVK
Test: affinity purification with mass spectrometry; N-His-aIF5A and co-purifying proteins from lysate of Sso PH1-16 (pMJ05-N-His-aIF5A) on Ni-NTA agarose; wash with 300 mM NaCl; whole eluate digested with trypsin, LC-MS/MS, label free quantification against a mock purification; enriched more than …

Row | Binder | binding
1 | Carbonic anhydrase (protein, UniProt Q97YU3 1-204) MISEYVDEEIKRREDYSLRRLKGIPNDRRLWILTCMDERVHVEEALGIRPEDAHIYRNAGGIVTDDAIRSASLTTNFFGTKEIIVITHTDCGMIRFTGDEVAKYFLDKGVKVNELQIDPLLPSLRLQSTEDFTKWFKFFRDLGANSPDDIALKNAEILKNHPLIPKNVTISAYVYEVETHKLRKPHQRLYELTSRFEHGTVVKE | binds
2 | Oxidoreductase (protein, UniProt Q97UV9 1-304) MEKKPLGWTNEKISPLILGSWEFGTPSIIDENNAIKAIQRAIELGINAIDTAESYGNGLSETIIGRAISKFKREDLFIITKVSIDHLRYDDVLKASEGSLKRLNTSYIDLYLVHWPNHYVPIRETAKAMERLFNEGKIRYVGLSNFSLPLMREFREHLSKTDVAANELHYNVLFRDVEKEVLPYMLRENIPLLAYDALGLGYLIGRKEVRNEYRWYVLARETYIKNLEPLIEEISSIAKELGKTPAQVVLNWLVSKDNVFAIFNTTKEDHLKENLGSLGWSLRDSDLRRLDEAVKKVTIDYFAR | binds

From article PMC6105217
